Record: PubChem BioAssay AID652259 (Drosophila RNAi Screening Center, 2013)
The deposit covers about 22,000 reagents; this is an unselected part of those that have a named target and a result. Of all reagents, 233 (1.1%) are marked active. 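Light values are raw, unnormalised plate reads; the ratio scores behind the reporter calls were not deposited.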 Names joined by + are all predicted targets of the reagent. Not given: the amount of reagent, the time to read-out, the dose of the treatment.

Test: 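Knock-downs that push a Wingless-driven reporter up or down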 (primary screen)
Cell system: Drosophila clone 8 imaginal disc epithelial cells
Knock-down reagent: long dsRNA against Drosophila genes
Conditions: pathway stimulated by co-transfected Wingless expression plasmid
Measured: 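Firefly luciferase from a tcf-site Wingless reporter, measured alongside co-transfected Renilla luciferase that tracks transfection; pathway stimulated by a Wingless plasmid; the firefly-to-Renilla ratio is not deposited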
Direction: firefly reporter light: higher = more Wg reporter light, before normalisation; Renilla control light: higher = more transfected or surviving cells
Call rule: 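a knock-down is a candidate when at least two out of four statistical tests show it departing from its plate mean; one test alone signals a weak candidate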
Calls: active = candidate regulator (raises or lowers reporter); inactive = not a candidate

gene | dsRNA | reporter change call, replicate 1 | firefly reporter light, replicate 1 | firefly reporter light, replicate 2 | Renilla control light, replicate 1 | Renilla control light, replicate 2 | Outcome
CG11052 | DRSC14288 | – | 15264 | – | 4929 | – | inactive
Cp190 (Centrosomal protein 190kD) | DRSC16607 | – | 3597 | – | 1677 | – | inactive
GstE7 (Glutathione S transferase E7) | DRSC06677 | – | 18577 | – | 5345 | – | inactive
COX3 (retired record) | DRSC21279 | – | 16212 | – | 6570 | – | inactive
CG5509 | DRSC15822 | – | 16560 | – | 4246 | – | inactive
CG30355 | DRSC21958 | – | 4.79e5 | 5.03e5 | 1.88e5 | 1.87e5 | inactive
trol (terribly reduced optic lobes) | DRSC17714 | – | 4056 | – | 1706 | – | inactive
trol (terribly reduced optic lobes) | DRSC17718 | – | 3984 | – | 1542 | – | inactive
trol (terribly reduced optic lobes) | DRSC18613 | – | 15017 | – | 9491 | – | inactive
trol (terribly reduced optic lobes) | DRSC18814 | – | 11394 | – | 11163 | – | inactive
CG3984 | DRSC15530 | – | 19632 | – | 3347 | – | inactive
Rca1 (Regulator of cyclin A1) | DRSC03407 | – | 5881 | – | 3989 | – | inactive
qua (quail) | DRSC03598 | – | 2070 | 5106 | 1121 | 3133 | inactive
klhl10 (kelch like family member 10) | DRSC05274 | – | 17714 | – | 14827 | – | inactive
klhl10 (kelch like family member 10) | DRSC19171 | – | 5482 | – | 1660 | – | inactive
klhl10 (kelch like family member 10) | DRSC20750 | – | 15777 | – | 9744 | – | inactive
klhl10 (kelch like family member 10) | DRSC20925 | – | 21544 | – | 13929 | – | inactive
CG31933 | DRSC00457 | – | 3286 | 11216 | 1175 | 3528 | inactive
CG12448 | DRSC01967 | – | 3141 | 7681 | 896 | 2845 | inactive
CG2004 | DRSC18200 | – | 16999 | – | 10854 | – | inactive
Acyp2 (Acylphosphatase 2) | DRSC15336 | – | 17308 | – | 3578 | – | inactive
Neb-cGP | DRSC17991 | – | 26435 | – | 13740 | – | inactive
CG14258 | DRSC14753 | – | 9546 | – | 3168 | – | inactive
spri (sprint) | DRSC17846 | – | 13649 | – | 5971 | – | inactive
spri (sprint) | DRSC17984 | – | 16501 | – | 6291 | – | inactive
spri (sprint) | DRSC17985 | – | 21397 | – | 10105 | – | inactive
spri (sprint) | DRSC17986 | – | 29749 | – | 13458 | – | inactive
spri (sprint) | DRSC17988 | – | 18821 | – | 9453 | – | inactive
spri (sprint) | DRSC17989 | – | 14921 | – | 8096 | – | inactive
spri (sprint) | DRSC22927 | – | 4.44e5 | 4.62e5 | 1.75e5 | 1.63e5 | inactive
CG31897 | DRSC01020 | – | 14714 | – | 8199 | – | inactive
sqh (spaghetti squash) | DRSC18837 | – | 3021 | 7083 | 881 | 1652 | inactive
Syx4 (Syntaxin 4) | DRSC18586 | – | 29277 | – | 14588 | – | inactive
TwdlL (TweedleL) | DRSC16042 | – | 2445 | 10231 | 1283 | 3436 | inactive
Invadolysin | DRSC15527 | – | 13002 | – | 4421 | – | inactive
CG30384 | DRSC06032 | – | 2402 | 6115 | 660 | 2929 | inactive
beat-Ia (beaten path Ia) | DRSC03489 | – | 2485 | 10544 | 916 | 3408 | inactive
Aduk (Another Drosophila Unc-51-like kinase) | DRSC16451 | – | 9750 | – | 2348 | – | inactive
MtnB (Metallothionein B) | DRSC22744 | – | 7.28e5 | 7.89e5 | 3.63e5 | 93193 | inactive
Cyt-c1L (Cytochrome c1-like) | DRSC14860 | – | 7520 | – | 2840 | – | inactive
Cyt-c1L (Cytochrome c1-like) | DRSC22096 | – | 5.45e5 | 5.89e5 | 1.86e5 | 1.76e5 | inactive
sip3 (septin interacting protein 3) | DRSC15402 | – | 2252 | 6553 | 944 | 2025 | inactive
SkpC (SKP1-related C) | DRSC20375 | – | 25920 | – | 14829 | – | inactive
Acsf2 (Acyl-CoA synthetase family member 2) | DRSC02172 | – | 2625 | 10648 | 1130 | 2903 | inactive
CG10750 | DRSC02105 | – | 7611 | – | 2652 | – | inactive
CG18636 | DRSC02685 | – | 2314 | 6424 | 1072 | 3349 | inactive
GstZ1 (Glutathione S transferase Z1) | DRSC16478 | – | 5754 | – | 2672 | – | inactive
htt (huntingtin) | DRSC16970 | – | 6756 | – | 2199 | – | inactive
CG7888 | DRSC10926 | – | 4448 | – | 2098 | – | inactive
Syx18 (Syntaxin 18) | DRSC14628 | – | 3785 | 9340 | 1346 | 2202 | inactive
Cyp6a22 (Cytochrome P450 6a22) | DRSC07382 | – | 11863 | – | 3552 | – | inactive
RpL27 (Ribosomal protein L27) | DRSC15638 | – | 11552 | – | 8041 | – | inactive
Dhod (Dihydroorotate dehydrogenase) | DRSC16647 | – | 4688 | – | 2354 | – | inactive
Urm1 (Ubiquitin-related modifier 1) | DRSC22941 | – | 6.09e5 | 6.02e5 | 2.85e5 | 1.94e5 | inactive
ft (fat) | DRSC00819 | – | 11895 | – | 5787 | – | inactive
CG8260 | DRSC20098 | – | 16284 | – | 9021 | – | inactive
EloC (Elongin C) | DRSC07423 | – | 4528 | – | 2354 | – | inactive
CG14777 | DRSC18563 | – | 23504 | – | 21232 | – | inactive
lectin-37Da | DRSC03278 | – | 4164 | 8965 | 1328 | 3826 | inactive
lectin-37Da | DRSC22729 | – | 8.30e5 | 8.30e5 | 3.25e5 | 3.71e5 | inactive
ohgt (ohgata) | DRSC15521 | – | 10946 | – | 3210 | – | inactive
hng1 (hinge1) | DRSC04555 | – | 9670 | – | 2726 | – | inactive
Or67c (Odorant receptor 67c) | DRSC11242 | – | 5035 | – | 2020 | – | inactive
Mob2 | DRSC09117 | – | 4389 | – | 354 | – | inactive
Mob2 | DRSC09119 | – | 3460 | – | 1436 | – | inactive
Mob2 | DRSC09856 | – | 8406 | – | 1908 | – | inactive
CG42372 + CG30100 | DRSC05602 | – | 18160 | – | 5962 | – | inactive
CG5084 | DRSC06913 | Wg reporter activity lowered | 6113 | – | 1892 | – | inactive
Npc2b (Niemann-Pick type C-2b) | DRSC15464 | – | 13176 | – | 3277 | – | inactive
Rpt3 (Regulatory particle triple-A ATPase 3) | DRSC20283 | – | 19745 | – | 5462 | – | inactive
Cpr72Eb (Cuticular protein 72Eb) | DRSC09870 | – | 7149 | – | 3062 | – | inactive
uzip (unzipped) | DRSC04722 | – | 9640 | – | 3798 | – | inactive
Six4 | DRSC11881 | – | 12996 | – | 4067 | – | inactive

Just “firefly reporter light, replicate 1”, for 7 of the entries above:
klhl10 (kelch like family member 10) [DRSC05274]: 17714
klhl10 (kelch like family member 10) [DRSC19171]: 5482
klhl10 (kelch like family member 10) [DRSC20750]: 15777
klhl10 (kelch like family member 10) [DRSC20925]: 21544
CG31933 [DRSC00457]: 3286
CG12448 [DRSC01967]: 3141
CG2004 [DRSC18200]: 16999
